# These are yes or no findings as the source states them, for the method shown. In cells and extracts the contact can be indirect. Here binding means that the protein was enriched with, or labelled near, the bait; the list need not be complete. For some assays here: Sequences can lack the tags named with a protein.
# Protein sequences, listed by entry. Tags and fused reporters are not part of them. Residues count along the entry.
# UniProt Q9NZQ7, residues 19-290: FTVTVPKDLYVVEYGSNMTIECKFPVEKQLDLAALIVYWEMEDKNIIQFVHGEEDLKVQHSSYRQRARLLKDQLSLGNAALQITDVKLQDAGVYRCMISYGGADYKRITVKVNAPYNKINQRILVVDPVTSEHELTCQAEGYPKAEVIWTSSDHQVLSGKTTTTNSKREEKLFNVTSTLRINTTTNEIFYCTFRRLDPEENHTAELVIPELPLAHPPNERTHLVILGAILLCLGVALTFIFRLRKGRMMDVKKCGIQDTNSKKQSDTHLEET
# UniProt Q9Y4B6: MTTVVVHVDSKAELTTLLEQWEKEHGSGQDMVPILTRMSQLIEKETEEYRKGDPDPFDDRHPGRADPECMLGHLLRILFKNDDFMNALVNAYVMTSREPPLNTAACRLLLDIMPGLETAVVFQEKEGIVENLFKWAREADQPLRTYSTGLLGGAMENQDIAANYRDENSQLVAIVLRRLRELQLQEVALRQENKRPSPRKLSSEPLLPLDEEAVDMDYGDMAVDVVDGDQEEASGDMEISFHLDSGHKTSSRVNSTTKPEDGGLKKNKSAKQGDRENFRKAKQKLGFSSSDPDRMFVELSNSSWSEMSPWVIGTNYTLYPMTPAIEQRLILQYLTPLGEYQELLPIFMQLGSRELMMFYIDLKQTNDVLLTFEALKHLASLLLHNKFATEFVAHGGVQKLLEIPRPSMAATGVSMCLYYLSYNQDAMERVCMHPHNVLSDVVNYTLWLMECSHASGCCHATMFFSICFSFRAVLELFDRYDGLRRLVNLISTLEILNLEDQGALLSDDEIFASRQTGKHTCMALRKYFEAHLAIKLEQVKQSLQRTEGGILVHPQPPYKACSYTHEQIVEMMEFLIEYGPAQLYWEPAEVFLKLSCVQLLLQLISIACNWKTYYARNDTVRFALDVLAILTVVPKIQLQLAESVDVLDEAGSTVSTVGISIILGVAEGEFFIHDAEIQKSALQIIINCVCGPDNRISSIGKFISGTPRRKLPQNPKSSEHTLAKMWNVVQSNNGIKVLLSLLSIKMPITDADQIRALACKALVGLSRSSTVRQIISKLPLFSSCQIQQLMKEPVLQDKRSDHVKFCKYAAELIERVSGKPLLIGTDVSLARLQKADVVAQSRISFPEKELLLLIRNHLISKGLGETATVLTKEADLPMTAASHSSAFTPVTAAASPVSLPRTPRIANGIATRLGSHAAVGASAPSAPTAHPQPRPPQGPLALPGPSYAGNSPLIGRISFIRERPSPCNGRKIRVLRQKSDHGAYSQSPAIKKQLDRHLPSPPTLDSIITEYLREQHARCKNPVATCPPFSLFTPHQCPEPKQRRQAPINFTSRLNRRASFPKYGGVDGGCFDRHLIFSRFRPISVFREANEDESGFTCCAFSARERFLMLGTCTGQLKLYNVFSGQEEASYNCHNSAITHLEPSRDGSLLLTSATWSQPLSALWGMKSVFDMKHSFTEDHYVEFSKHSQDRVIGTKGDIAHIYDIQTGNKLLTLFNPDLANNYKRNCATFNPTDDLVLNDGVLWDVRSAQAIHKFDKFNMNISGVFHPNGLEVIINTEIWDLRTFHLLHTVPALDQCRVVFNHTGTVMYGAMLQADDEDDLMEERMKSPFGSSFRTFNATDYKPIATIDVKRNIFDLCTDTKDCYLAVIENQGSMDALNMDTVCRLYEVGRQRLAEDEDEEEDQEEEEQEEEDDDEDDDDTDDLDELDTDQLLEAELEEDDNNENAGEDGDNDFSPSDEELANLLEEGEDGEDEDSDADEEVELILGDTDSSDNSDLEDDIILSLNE
# Assays:
# [1] = target: T1, SFB-tagged-USP2 protein (UniProt O75604); assay: affinity purification with mass spectrometry; biochemical purification of protein complexes formed by SFB-tagged USP2 in 293 cells; mass spectrometry
# T1 sequence: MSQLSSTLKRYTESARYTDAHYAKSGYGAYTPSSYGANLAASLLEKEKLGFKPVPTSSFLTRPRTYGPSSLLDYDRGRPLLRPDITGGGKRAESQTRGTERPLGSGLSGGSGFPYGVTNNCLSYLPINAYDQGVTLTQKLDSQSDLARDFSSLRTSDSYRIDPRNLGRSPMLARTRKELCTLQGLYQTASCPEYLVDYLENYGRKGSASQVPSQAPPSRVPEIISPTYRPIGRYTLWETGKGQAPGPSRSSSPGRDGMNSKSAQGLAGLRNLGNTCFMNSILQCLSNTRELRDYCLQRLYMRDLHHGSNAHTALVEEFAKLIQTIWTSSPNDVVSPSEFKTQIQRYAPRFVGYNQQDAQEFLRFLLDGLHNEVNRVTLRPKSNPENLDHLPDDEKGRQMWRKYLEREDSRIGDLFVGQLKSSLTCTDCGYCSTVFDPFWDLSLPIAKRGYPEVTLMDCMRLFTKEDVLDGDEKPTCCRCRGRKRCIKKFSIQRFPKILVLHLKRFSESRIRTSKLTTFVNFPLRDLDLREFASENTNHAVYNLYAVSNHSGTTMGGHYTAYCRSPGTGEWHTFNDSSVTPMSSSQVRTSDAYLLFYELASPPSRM
# [2] = target: C-terminal tagged PD-L1 (PD-L1-SFB) (human) (UniProt Q9NZQ7); assay: affinity purification with mass spectrometry; two-step affinity chromatography (anti-Flag M2-agarose beads and S-protein-agarose beads) from extracts of H1299 cells stably expressing PD-L1-SFB; LC-MS/MS
substance,measurement,setting,value
endogenous VPRBP (from UniProt Q9Y4B6 1-1507),binding,[1],binds
same,binding,[2],binds

# Reference: publication PMC10079682
